Experimental data: patent US10975079B2, “4-amino-3-phenylamino-6-phenylpyrazolo[3,4-d]pyrimidine derivatives for use as BCRP inhibitors in therapeutic treatments” (SCANDION ONCOLOGY A/S, priority 2015, dated 2021)
Some results were stated once for a whole list of compounds, not compound by compound.

Protein sequences, listed by entry. Tags and fused reporters are not part of them.
UniProt P08183, whole entry: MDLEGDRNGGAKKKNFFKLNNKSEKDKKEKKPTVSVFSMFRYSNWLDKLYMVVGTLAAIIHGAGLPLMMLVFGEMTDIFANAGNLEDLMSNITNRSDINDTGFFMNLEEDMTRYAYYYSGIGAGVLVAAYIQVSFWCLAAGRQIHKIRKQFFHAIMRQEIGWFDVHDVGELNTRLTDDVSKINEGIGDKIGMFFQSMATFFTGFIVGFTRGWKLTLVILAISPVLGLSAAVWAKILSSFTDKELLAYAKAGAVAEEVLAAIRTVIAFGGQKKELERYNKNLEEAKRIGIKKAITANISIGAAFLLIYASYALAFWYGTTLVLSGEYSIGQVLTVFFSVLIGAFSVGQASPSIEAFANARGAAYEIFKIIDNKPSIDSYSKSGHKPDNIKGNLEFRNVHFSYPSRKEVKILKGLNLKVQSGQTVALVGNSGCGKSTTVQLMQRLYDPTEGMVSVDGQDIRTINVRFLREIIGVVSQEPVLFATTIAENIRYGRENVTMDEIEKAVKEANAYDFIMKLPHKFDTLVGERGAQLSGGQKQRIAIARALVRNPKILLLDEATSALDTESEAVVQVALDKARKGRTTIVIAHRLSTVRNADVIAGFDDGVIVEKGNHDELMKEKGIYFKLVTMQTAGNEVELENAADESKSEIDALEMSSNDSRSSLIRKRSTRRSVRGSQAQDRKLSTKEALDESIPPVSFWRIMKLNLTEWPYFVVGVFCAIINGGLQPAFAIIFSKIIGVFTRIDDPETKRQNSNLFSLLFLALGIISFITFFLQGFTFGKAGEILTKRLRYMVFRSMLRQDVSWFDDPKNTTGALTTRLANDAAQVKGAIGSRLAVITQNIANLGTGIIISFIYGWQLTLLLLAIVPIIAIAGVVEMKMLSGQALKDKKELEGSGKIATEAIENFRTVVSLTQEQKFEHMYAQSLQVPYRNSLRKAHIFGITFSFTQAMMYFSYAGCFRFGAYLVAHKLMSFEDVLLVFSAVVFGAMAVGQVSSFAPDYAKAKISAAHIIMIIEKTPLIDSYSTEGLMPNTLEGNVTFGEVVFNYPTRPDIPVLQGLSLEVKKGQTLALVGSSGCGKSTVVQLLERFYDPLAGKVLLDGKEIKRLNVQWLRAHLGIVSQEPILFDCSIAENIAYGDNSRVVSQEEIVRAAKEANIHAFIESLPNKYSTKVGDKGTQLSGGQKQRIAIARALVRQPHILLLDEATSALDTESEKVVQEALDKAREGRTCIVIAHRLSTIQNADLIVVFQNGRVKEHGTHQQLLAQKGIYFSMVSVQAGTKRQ

Biological target: P-pg transporter (Homo sapiens, UniProt P08183)
Experiment: Inhibitory effect on the P-gp transporter (similar investigations)
Format: cell-based
Conditions: at the highest validated testing concentration; did not show any binding

effect on P-pg transporter (concentration response curves) | Compound
less than 25% | Nc1nc(-c2ccc(OC(F)(F)F)cc2)nc2[nH]nc(Nc3ccccc3)c12 [MS-112, 4-amino-3-phenylamino-6-[4-(trifluormethoxy)-phenyl]pyrazolo[3,4-d]pyrimidine]
less than 25% | Nc1nc(-c2ccccc2)nc2[nH]nc(Nc3ccc(C(F)(F)F)cc3)c12 [OBR-5-340, 4-amino-3-(4-trifluormethyl-phenyl)amino-6-phenylpyrazolo[3,4-d]pyrimidine]
